Article PMC9934748

The chains behind the UniProt entries cited, without tags or fusion partners. Where a name states a change or a piece, a line headed by the entry shows the natural chain unless it says otherwise.
UniProt A0A509AJF0: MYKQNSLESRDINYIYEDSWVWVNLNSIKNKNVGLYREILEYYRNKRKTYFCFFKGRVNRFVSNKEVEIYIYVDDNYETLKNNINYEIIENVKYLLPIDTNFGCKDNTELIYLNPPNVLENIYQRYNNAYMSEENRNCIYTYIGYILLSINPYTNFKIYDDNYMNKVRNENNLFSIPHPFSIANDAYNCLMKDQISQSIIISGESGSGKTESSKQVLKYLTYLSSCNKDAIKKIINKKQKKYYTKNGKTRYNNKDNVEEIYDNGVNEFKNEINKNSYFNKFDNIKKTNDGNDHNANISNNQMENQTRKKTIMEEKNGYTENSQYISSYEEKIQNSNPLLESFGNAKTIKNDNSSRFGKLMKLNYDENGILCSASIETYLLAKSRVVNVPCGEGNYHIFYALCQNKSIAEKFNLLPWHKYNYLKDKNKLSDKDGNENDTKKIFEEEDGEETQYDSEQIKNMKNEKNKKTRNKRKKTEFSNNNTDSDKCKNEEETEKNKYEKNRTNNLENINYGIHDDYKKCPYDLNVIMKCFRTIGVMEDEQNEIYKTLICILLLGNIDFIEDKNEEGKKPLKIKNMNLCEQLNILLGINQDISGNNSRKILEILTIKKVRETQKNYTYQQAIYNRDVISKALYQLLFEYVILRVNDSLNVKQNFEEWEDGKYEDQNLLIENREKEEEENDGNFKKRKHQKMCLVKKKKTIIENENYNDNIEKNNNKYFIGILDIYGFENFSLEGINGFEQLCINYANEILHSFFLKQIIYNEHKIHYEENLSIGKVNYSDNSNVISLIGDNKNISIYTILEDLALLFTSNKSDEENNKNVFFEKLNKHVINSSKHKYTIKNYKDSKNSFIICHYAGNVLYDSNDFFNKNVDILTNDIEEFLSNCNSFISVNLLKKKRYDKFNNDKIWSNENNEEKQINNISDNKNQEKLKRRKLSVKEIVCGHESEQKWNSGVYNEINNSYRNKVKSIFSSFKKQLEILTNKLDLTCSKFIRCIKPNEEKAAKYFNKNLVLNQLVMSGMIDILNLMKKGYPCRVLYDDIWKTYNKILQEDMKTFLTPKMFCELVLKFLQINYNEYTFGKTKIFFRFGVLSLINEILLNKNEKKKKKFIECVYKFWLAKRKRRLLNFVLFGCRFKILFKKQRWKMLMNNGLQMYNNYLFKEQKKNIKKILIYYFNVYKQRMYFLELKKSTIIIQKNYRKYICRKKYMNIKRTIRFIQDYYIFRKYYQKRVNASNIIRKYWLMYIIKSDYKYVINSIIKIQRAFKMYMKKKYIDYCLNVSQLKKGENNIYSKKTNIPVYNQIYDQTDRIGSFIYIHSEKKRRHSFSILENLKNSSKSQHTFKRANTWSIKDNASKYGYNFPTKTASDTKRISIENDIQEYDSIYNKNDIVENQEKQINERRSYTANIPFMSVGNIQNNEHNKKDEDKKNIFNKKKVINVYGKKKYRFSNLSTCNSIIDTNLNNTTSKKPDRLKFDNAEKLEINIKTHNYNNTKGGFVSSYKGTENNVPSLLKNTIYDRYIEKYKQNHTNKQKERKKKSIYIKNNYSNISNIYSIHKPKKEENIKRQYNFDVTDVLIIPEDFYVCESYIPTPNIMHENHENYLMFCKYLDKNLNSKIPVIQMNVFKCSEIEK
UniProt A0A509AS96: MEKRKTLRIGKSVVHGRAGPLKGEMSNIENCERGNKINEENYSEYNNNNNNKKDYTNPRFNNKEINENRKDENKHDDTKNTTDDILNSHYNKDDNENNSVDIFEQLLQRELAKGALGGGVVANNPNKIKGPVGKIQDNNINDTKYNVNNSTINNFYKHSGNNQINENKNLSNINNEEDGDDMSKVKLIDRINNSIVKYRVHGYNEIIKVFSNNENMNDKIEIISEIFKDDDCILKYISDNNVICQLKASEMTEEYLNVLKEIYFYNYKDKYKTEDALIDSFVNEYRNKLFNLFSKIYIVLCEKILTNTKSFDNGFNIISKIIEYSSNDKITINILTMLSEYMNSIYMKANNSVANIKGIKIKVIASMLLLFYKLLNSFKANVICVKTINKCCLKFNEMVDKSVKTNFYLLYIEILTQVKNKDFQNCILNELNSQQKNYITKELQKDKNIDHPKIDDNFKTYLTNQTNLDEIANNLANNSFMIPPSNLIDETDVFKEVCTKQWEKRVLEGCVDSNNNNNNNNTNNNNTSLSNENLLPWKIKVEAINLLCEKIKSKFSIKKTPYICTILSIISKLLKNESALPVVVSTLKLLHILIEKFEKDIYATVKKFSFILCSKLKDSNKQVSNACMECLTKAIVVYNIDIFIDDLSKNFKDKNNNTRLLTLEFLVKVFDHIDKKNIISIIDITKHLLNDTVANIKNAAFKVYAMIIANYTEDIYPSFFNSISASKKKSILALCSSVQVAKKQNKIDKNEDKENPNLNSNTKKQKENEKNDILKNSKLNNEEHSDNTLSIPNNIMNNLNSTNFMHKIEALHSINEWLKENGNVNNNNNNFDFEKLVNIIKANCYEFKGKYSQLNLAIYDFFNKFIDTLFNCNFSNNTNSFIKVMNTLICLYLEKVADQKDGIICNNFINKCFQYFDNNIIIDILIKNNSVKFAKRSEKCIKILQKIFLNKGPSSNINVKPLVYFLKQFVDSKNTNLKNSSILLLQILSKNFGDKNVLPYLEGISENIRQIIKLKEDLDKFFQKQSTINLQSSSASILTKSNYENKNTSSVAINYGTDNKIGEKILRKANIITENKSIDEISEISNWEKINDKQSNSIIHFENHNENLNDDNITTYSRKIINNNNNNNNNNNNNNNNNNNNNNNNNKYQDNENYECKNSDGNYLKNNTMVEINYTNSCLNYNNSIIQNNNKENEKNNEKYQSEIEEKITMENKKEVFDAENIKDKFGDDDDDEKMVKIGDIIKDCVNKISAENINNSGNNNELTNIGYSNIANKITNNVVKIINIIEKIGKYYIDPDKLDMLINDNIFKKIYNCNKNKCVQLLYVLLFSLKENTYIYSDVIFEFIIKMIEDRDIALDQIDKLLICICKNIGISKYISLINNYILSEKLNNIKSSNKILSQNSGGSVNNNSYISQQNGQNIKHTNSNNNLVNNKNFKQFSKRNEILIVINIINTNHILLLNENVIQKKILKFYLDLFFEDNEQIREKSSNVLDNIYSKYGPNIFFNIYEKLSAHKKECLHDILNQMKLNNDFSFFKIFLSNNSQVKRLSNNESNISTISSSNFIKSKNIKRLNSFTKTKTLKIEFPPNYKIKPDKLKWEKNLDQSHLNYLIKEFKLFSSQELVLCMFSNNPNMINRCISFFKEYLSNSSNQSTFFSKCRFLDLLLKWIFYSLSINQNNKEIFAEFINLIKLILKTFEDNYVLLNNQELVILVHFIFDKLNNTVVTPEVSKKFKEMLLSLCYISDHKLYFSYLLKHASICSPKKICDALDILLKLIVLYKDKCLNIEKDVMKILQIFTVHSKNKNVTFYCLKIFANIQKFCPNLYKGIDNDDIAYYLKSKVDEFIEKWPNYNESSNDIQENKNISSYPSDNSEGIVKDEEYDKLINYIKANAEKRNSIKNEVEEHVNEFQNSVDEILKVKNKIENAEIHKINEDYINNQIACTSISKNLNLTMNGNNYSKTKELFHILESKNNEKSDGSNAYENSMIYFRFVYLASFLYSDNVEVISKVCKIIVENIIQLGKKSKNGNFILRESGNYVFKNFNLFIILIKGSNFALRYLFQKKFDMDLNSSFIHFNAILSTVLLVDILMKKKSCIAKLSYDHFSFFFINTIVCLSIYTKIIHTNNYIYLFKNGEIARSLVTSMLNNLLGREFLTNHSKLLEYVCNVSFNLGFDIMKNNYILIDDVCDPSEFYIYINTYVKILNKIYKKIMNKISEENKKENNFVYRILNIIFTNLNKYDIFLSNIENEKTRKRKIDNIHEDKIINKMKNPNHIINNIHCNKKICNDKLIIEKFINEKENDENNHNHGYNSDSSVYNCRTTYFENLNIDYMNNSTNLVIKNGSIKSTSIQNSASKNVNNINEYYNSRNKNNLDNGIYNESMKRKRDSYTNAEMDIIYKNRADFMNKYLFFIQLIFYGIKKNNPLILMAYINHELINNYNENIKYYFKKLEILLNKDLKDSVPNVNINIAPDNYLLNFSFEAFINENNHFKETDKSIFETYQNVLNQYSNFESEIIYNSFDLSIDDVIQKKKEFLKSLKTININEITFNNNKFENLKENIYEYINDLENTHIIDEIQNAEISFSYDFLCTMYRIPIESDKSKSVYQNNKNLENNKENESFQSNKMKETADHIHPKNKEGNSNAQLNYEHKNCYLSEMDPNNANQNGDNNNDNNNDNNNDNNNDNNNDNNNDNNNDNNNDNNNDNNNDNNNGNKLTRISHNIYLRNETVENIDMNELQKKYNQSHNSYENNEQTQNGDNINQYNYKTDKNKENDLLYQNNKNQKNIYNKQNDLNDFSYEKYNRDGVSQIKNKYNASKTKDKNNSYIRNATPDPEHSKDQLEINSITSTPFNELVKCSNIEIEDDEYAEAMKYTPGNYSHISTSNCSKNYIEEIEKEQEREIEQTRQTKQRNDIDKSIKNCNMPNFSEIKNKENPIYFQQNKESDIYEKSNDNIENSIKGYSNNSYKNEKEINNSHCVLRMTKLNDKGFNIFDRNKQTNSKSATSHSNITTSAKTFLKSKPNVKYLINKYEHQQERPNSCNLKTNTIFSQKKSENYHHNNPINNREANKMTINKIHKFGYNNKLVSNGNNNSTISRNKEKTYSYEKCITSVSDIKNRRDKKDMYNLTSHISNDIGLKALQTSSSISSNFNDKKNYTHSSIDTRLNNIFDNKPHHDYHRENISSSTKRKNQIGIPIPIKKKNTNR

biological target: End-binding protein EB1, C-terminal GFP-tagged (EB1-GFP) (P. berghei); assay: affinity purification with mass spectrometry; GFP-Trap_A beads (Chromotek) on lysates of EB1-GFP gametocytes 1 min post activation, crosslinked with 1% formaldehyde for 10 min; 2 h at 4 °C; on-bead trypsin digest, LC-MS/MS; WT-GFP (GFP alone) gametocytes as control

binding, binds:
CPC subunit INCENP2 (from UniProt A0A509AQF6)
myosin K (from UniProt A0A509AJF0)
STU2 (from UniProt A0A509AS96)

Results are given in words; binding and its absence hold for the method and conditions named. In cells and extracts the contact can be indirect. A yes stands for co-enrichment or nearness to the bait. Other partners may have been found.
